Measured values from article PMC8963843.
No constants are given. Whether binding was seen depends on the method and setting. In cells and extracts the contact can be indirect. Some entries that bind do so weakly or less than the wild type. Tags and fused reporters may be left off the sequences shown.

Target: T1, Myc-tagged wild-type MKS1 (human) (UniProt Q9NXB0)
T1 sequence: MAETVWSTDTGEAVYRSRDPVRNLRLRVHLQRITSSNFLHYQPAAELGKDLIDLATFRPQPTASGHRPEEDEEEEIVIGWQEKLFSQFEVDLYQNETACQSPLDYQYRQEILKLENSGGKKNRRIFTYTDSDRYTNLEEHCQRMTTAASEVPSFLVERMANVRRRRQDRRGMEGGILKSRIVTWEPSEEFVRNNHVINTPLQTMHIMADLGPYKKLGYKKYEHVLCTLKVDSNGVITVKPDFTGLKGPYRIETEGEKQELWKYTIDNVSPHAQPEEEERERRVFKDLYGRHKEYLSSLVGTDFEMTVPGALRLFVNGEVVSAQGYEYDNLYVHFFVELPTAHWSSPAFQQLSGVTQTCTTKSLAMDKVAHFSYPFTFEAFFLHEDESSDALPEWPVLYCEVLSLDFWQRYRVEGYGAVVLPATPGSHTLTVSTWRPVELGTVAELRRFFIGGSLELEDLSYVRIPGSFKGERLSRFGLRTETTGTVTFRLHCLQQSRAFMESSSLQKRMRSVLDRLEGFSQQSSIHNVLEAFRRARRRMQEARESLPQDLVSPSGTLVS
Assay: co-IP; Myc-MKS1 (1.5 ug) and HA-B9D2 (1.0 ug) vectors co-transfected into HEK293T, lysed 36 h after transfection; anti-Myc magnetic beads at 4 C for 4-6 h, three washes, eluted with 3x Myc peptide; blots with anti-Myc and anti-HA

B1: HA-tagged B9D2 (protein, UniProt Q9BPU9 1-175)
chain: MAEVHVIGQIIGASGFSESSLFCKWGIHTGAAWKLLSGVREGQTQVDTPQIGDMAYWSHPIDLHFATKGLQGWPRLHFQVWSQDSFGRCQLAGYGFCHVPSSPGTHQLACPTWRPLGSWREQLARAFVGGGPQLLHGDTIYSGADRYRLHTAAGGTVHLEIGLLLRNFDRYGVEC
**Q.** Which binding does the source give for B1 here?
**A.** The binding was “binds”.
